This is one part of the list. Further columns of the screen follow, without active or inactive calls. Most of these compounds were active or inconclusive in the main read-out, so they are no random draw. Words in brackets tell the shape of the fitted curve; partial curves, single points and poor fits give uncertain potencies.
Experiment: qHTS Assay to Find Inhibitors of Chronic Active B-Cell Receptor Signaling
Conditions: ABC-DLBCL IkBa-CBG/CBR reporter, luminescence ratio (green luciferase fused to IkBa over red control in TMD8 lymphoma cells), 4 h
Method in brief: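 Concentration-response series (up to 46 uM) were applied to TMD8 dual-reporter cells for 4 h at 37C with doxycycline. Green/red ratio, after filter-overlap correction, defined %Activity; red signal alone was normalised to basal cells and zero luminescence.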

[1] = measured here: CBR red luminescence, cell number
[2] = measured here: IkBa-CBG green luminescence

**Q.** Which AC50 [1] does the source give for Cn1cnnc1SCC(=O)NCCc1ccccc1 here?
**A.** 2.91 µM [falling, single point]

**Q.** For CCOC(=O)Cc1csc(NC(=O)COc2cccc(C)c2)n1, which AC50 [1] is on record?
**A.** 7.94 µM [falling, partial curve]

**Q.** Which AC50 [1] does the source give for Cc1ccc(NC(=O)c2ccc(CSc3ccccn3)cc2)cc1 here?
**A.** 8.91 µM [falling, partial curve]

**Q.** Which results are given for CCN(CC)c1ccc(/C=N/NC(=O)c2ccco2)cc1?
**A.** AC50 [1]: 29.1 µM [falling, single point]; AC50 [2]: 18.4 µM [falling, single point]

**Q.** For CC(C)N1CCN(CC#Cc2ccccc2)CC1CCO (stereo not given), which AC50 [1] is on record?
**A.** 20 µM [rising, single point]

**Q.** With COc1ccc(-c2c3c(nc4sc5c(=O)[nH]c(C)nc5c24)CCC3)cc1 as the molecule, how does the AC50 [1] read?
**A.** 17.8 µM [rising, partial curve, poor fit]

**Q.** For Cc1ccc2cc(CN(c3ccccc3)S(=O)(=O)c3ccccc3)c(=O)[nH]c2c1, which AC50 [1] is on record?
**A.** 2.24 µM [falling, full curve, poor fit]

**Q.** For O=C(N/N=C/c1cc(Br)c(O)c(Br)c1O)c1ccc2c(c1)OCCO2, which AC50 [1] is on record?
**A.** 2.24 µM [falling, full curve]

**Q.** For COc1ccc(/C=N/Nc2cc(C)nc(N3CCOCC3)n2)c(OC)c1, which AC50 [1] is on record?
**A.** 35.5 µM [rising, partial curve, poor fit]

**Q.** Which AC50 [1] does the source give for CN1C(=O)/C(=C\C(=O)c2cccs2)c2ccccc21 here?
**A.** 11.2 µM [falling, partial curve]

**Q.** Which AC50 [1] does the source give for COc1ccc(C2c3cc(OC)c(OC)cc3CCN2C2CC(=O)N(c3ccccc3)C2=O)cc1OC (stereo not given) here?
**A.** 0.116 µM [rising, full curve, poor fit]

**Q.** For COc1ccc(S(=O)(=O)N2CCOCC2)cc1NC(=O)CSc1ncccn1, which AC50 [1] is on record?
**A.** 29.1 µM [rising, partial curve, poor fit]

**Q.** With C/C(N)=C(/C#N)C(=O)COC(=O)c1cc2c(s1)CCCC2 as the molecule, how does the AC50 [1] read?
**A.** 12.6 µM [rising, single point]

**Q.** Which AC50 [1] does the source give for CCOC(=O)c1c(CSC(=N)N)n(C)c2cc(Br)c(OC(C)=O)cc12 here?
**A.** 22.4 µM [falling, single point]

**Q.** With COC(=O)c1cc(S(=O)(=O)NC2CCC(C)CC2)cn1C (stereo not given) as the molecule, how does the AC50 [1] read?
**A.** 6.31 µM [falling, single point]

**Q.** For CC(=O)/C=C/n1c(=S)oc2ccccc21, which AC50 [1] is on record?
**A.** 20.6 µM [falling, partial curve]

**Q.** And the AC50 [2]?
**A.** 5.17 µM [falling, single point]

**Q.** For CCNc1oc(-c2ccccc2F)nc1S(=O)(=O)c1ccccc1, which AC50 [1] is on record?
**A.** 14.1 µM [falling, single point]

**Q.** For Cc1cc(SCc2ccccc2C)nc(=O)[nH]1, which AC50 [1] is on record?
**A.** 3.55 µM [falling, full curve]

**Q.** For O=C(CNC(=O)c1cccs1)NCCc1ccco1, which AC50 [1] is on record?
**A.** 23.1 µM [rising, partial curve, poor fit]

**Q.** Which AC50 [1] does the source give for COc1cccc(-n2c(SC)nnc2-c2c[nH]c3ccccc23)c1 here?
**A.** 17.8 µM [falling, single point]

**Q.** For Cc1nn(Cc2c(Cl)cccc2Cl)c(Cl)c1/C=C/C(=O)OCC(=O)NCC(F)(F)F, which AC50 [1] is on record?
**A.** 0.092 µM [rising, full curve, poor fit]

**Q.** Which AC50 [1] does the source give for COc1ccc(NC(=O)CSc2ccccn2)c([N+](=O)[O-])c1 here?
**A.** 17.8 µM [rising, single point]

**Q.** For COc1cccc(/C=C2\SC(=O)N(CCC(=O)N3CCC(C(=O)O)CC3)C2=O)c1, which AC50 [1] is on record?
**A.** 2.82 µM [falling, full curve]

**Q.** Which AC50 [1] does the source give for Cc1cc(S(=O)(=O)NCC(=O)O)ccc1F here?
**A.** 2.31 µM [falling, single point]

**Q.** And the AC50 [2]?
**A.** 4.11 µM [rising, partial curve, poor fit]

**Q.** Which AC50 [1] does the source give for c1ccc(C2C/C(=N\N3CCOCC3)c3ccccc3O2)cc1 (stereo not given) here?
**A.** 0.231 µM [rising, full curve, poor fit]

**Q.** With CC(/C=C1\SC(=S)N(NC(=O)c2cccc(O)c2)C1=O)=C\c1ccccc1 as the molecule, how does the AC50 [1] read?
**A.** 20.6 µM [falling, single point]

**Q.** What about the AC50 [2] of the same molecule?
**A.** 32.6 µM [falling, partial curve, poor fit]

**Q.** Which AC50 [1] does the source give for COC(=O)c1ccc(/C=C2/SC(=S)N(CCCC(=O)Nc3ccccn3)C2=O)cc1 here?
**A.** 13 µM [falling, partial curve]

**Q.** Which AC50 [1] does the source give for Cc1sc2nc(C3CC3)nc(N3CCN(C(=O)c4ccc(F)cc4)CC3)c2c1C here?
**A.** 35.5 µM [falling, single point]

**Q.** Which AC50 [1] does the source give for Cc1ccccc1NC(=S)NNC(=O)c1cccc(Br)c1 here?
**A.** 4.47 µM [falling, partial curve, poor fit]

**Q.** Which AC50 [1] does the source give for COc1cccc2cc(C(=O)OCC(=O)NC3CCCC(C)C3C)c(=O)oc12 (stereo not given) here?
**A.** 6.51 µM [falling, partial curve, poor fit]

**Q.** With CCC(=O)N(CC)c1nc(-c2ccc(OC)cc2)cs1 as the molecule, how does the AC50 [1] read?
**A.** 10 µM [rising, partial curve]

**Q.** For O=Cc1ccc(Sc2nnc(-c3ccccc3)o2)c([N+](=O)[O-])c1, which AC50 [1] is on record?
**A.** 29.1 µM [rising, single point]

**Q.** And the AC50 [2]?
**A.** 29.1 µM [falling, single point]

**Q.** Which AC50 [1] does the source give for O=C(Nc1cccc(NC(=O)c2ccc(-c3cccc(Br)c3)o2)c1)c1ccco1 here?
**A.** 0.891 µM [falling, full curve]

**Q.** Which AC50 [1] does the source give for O=C(CCS(=O)(=O)c1ccc(F)cc1)Nc1nnc(-c2ccco2)o1 here?
**A.** 29.1 µM [falling, single point]

**Q.** With O=C(CC(c1ccccc1)c1ccccc1)NCC(O)c1ccc([N+](=O)[O-])cc1 (stereo not given) as the molecule, how does the AC50 [1] read?
**A.** 7.94 µM [falling, partial curve, poor fit]

**Q.** Which AC50 [1] does the source give for COc1cc(NC(=O)CN2C(=O)C(c3ccccc3)=NC23CCCCCC3)cc(OC)c1 here?
**A.** 5.17 µM [falling, single point]

**Q.** With COc1ccc(C(=O)N/N=C/c2ccccc2OC(=O)c2ccccc2)cc1 as the molecule, how does the AC50 [1] read?
**A.** 35.5 µM [falling, single point]

**Q.** And the AC50 [2]?
**A.** 3.16 µM [falling, partial curve, poor fit]

**Q.** With CCOc1cc(N2CCOCC2)c(OCC)cc1NC(=O)Cc1cccc(OC)c1 as the molecule, how does the AC50 [1] read?
**A.** 8.91 µM [rising, partial curve, poor fit]

**Q.** Which AC50 [1] does the source give for Cc1ccc(N/N=C2\CC(=O)c3ccccc32)cc1Cl here?
**A.** 3.55 µM [rising, full curve]

**Q.** With CN(Cc1cn(C)nc1-c1ccc(Oc2ccccc2)cc1)C1CCOC1 (stereo not given) as the molecule, how does the AC50 [1] read?
**A.** 8.91 µM [rising, partial curve, poor fit]

**Q.** With N=C1S/C(=C\c2ccc(-c3cccc(Cl)c3)o2)C(=O)N1c1nccs1 as the molecule, how does the AC50 [1] read?
**A.** 25.9 µM [rising, single point]

**Q.** And the AC50 [2]?
**A.** 2.31 µM [falling, partial curve, poor fit]

**Q.** Which AC50 [1] does the source give for CCOc1ccc(OCC)c(NC(=O)Cn2cccc2)c1 here?
**A.** 29.1 µM [rising, single point]

**Q.** Which AC50 [1] does the source give for O=C(Nc1cccc(NC(=O)c2cccnc2)c1)c1ccccc1 here?
**A.** 8.91 µM [falling, partial curve]

**Q.** With CN(CCCC(=O)Nc1ccccc1F)S(=O)(=O)c1ccc(F)cc1 as the molecule, how does the AC50 [1] read?
**A.** 11.2 µM [falling, partial curve]

**Q.** For CN(/N=C/c1cc(Cl)cc(Cl)c1O)C(=S)NC(C)(C)C, which AC50 [1] is on record?
**A.** 25.1 µM [falling, partial curve, poor fit]

**Q.** With COc1nc(NCc2cccnc2)nc(NC2CCCCC2)n1 as the molecule, how does the AC50 [1] read?
**A.** 29.1 µM [falling, single point]

**Q.** For COc1ccc(Cl)cc1NC(=O)C1Cc2ccccc2CN1S(C)(=O)=O (stereo not given), which AC50 [1] is on record?
**A.** 5.01 µM [rising, single point]

**Q.** Which AC50 [1] does the source give for NC(=O)C(F)(F)C12OC3C4C5CC(C6C5C3C61)C42 (stereo not given) here?
**A.** 0.651 µM [falling, full curve, poor fit]

**Q.** Which AC50 [1] does the source give for CCC(CO)NS(=O)(=O)c1cc(-c2nn(C)c(=O)c3ccccc23)ccc1C (stereo not given) here?
**A.** 0.891 µM [rising, partial curve, poor fit]

**Q.** With CCc1ccc2nc(NC(=O)C3CSC4(C)CCC(=O)N34)sc2c1 (stereo not given) as the molecule, how does the AC50 [1] read?
**A.** 32.6 µM [falling, partial curve, poor fit]

**Q.** Which results are given for COC(=O)C1=C(C)NC(C)=C(C(=O)OC)C1c1ccccc1[N+](=O)[O-]?
**A.** AC50 [1]: 6.31 µM [falling, full curve]; AC50 [2]: 29.1 µM [rising, single point]

**Q.** Which results are given for COc1ccc(/C=N/NC(=O)COc2ccccc2-c2ccccc2)cc1?
**A.** AC50 [1]: 4.11 µM [rising, full curve]; AC50 [2]: 5.8 µM [falling, partial curve]

**Q.** With COc1cc(-c2n[nH]c(=S)n2-c2ccc(C)cc2)cc(OC)c1OC as the molecule, how does the AC50 [1] read?
**A.** 35.5 µM [falling, single point]

**Q.** And the AC50 [2]?
**A.** 35.5 µM [rising, partial curve, poor fit]

**Q.** With COc1ccc(CCN(C)C(=O)c2cc(S(=O)(=O)NCc3ccccc3)ccc2C)cc1OC as the molecule, how does the AC50 [1] read?
**A.** 1.3 µM [rising, partial curve]

**Q.** With COc1ccc(NC(=O)/C(=C\c2cccs2)NC(=O)c2ccco2)cc1 as the molecule, how does the AC50 [1] read?
**A.** 0.447 µM [falling, partial curve, poor fit]

**Q.** For CC(C)C(C)(C#N)NC(=O)CSc1nc2scc(-c3ccco3)c2c(=O)n1-c1ccccc1 (stereo not given), which AC50 [1] is on record?
**A.** 3.55 µM [falling, partial curve, poor fit]

**Q.** Which AC50 [1] does the source give for COc1cccc(C2CNC3(CCCC(C)C3)c3[nH]c4ccccc4c32)c1OC (stereo not given) here?
**A.** 10 µM [falling, partial curve]

**Q.** Which AC50 [1] does the source give for COC(=O)c1ccc(Cl)c(-c2ccc(/C=N/NC(=O)Nc3ccccc3)o2)c1 here?
**A.** 11.6 µM [rising, partial curve, poor fit]

**Q.** For Nc1ccccc1SCc1csc(-c2ccc(Cl)cc2)n1, which AC50 [1] is on record?
**A.** 0.708 µM [rising, full curve, poor fit]

**Q.** For COc1ccc(C2CC(c3ccccc3)=NN2C(=O)CN2CCN(Cc3ccccc3)CC2)cc1 (stereo not given), which AC50 [1] is on record?
**A.** 15.8 µM [rising, partial curve, poor fit]
